Data taken from publication doi:10.1101/2024.03.05.583522.
Results are given in words; binding and its absence hold for the method and conditions named. Binding seen in cells or lysates may run through a third protein. Some results given as binding are weak or reduced against the parent protein; the word gives no strength. Tags and fused reporters may be left off the sequences shown.

Molecular target: T1, Sph1-VC (synphilin-1 fused in front of the C-terminal fragment of Venus) (human) (UniProt Q9Y6H5)
T1 sequence: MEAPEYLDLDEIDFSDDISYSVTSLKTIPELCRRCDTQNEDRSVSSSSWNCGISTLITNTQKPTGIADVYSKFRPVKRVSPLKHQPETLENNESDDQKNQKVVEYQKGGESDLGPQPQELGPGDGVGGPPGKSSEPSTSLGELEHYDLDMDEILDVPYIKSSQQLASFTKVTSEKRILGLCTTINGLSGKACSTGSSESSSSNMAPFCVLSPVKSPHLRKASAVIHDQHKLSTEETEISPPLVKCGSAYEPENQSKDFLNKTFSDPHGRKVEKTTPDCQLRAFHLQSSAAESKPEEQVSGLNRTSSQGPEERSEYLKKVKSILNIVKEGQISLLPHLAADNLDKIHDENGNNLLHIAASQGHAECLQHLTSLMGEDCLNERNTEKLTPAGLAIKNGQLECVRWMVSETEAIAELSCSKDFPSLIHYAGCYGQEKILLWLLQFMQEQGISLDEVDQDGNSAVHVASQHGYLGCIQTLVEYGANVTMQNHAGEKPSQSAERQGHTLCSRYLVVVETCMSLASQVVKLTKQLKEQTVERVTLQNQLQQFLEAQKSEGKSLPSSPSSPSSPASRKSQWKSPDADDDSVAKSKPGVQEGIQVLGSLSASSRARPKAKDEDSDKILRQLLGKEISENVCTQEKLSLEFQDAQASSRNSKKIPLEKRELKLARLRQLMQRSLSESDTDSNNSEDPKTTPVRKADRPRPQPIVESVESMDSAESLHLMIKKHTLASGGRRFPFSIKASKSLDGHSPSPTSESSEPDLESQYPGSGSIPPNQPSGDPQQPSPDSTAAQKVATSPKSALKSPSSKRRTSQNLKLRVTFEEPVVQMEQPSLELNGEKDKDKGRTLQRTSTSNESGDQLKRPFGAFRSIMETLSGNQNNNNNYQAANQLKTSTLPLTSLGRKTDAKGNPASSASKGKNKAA
Assay: split reporter

- binding: binds
B1: VN-Sph1 (synphilin-1 fused behind the N-terminal fragment of Venus) (protein, UniProt Q9Y6H5 1-919)
chain: MEAPEYLDLDEIDFSDDISYSVTSLKTIPELCRRCDTQNEDRSVSSSSWNCGISTLITNTQKPTGIADVYSKFRPVKRVSPLKHQPETLENNESDDQKNQKVVEYQKGGESDLGPQPQELGPGDGVGGPPGKSSEPSTSLGELEHYDLDMDEILDVPYIKSSQQLASFTKVTSEKRILGLCTTINGLSGKACSTGSSESSSSNMAPFCVLSPVKSPHLRKASAVIHDQHKLSTEETEISPPLVKCGSAYEPENQSKDFLNKTFSDPHGRKVEKTTPDCQLRAFHLQSSAAESKPEEQVSGLNRTSSQGPEERSEYLKKVKSILNIVKEGQISLLPHLAADNLDKIHDENGNNLLHIAASQGHAECLQHLTSLMGEDCLNERNTEKLTPAGLAIKNGQLECVRWMVSETEAIAELSCSKDFPSLIHYAGCYGQEKILLWLLQFMQEQGISLDEVDQDGNSAVHVASQHGYLGCIQTLVEYGANVTMQNHAGEKPSQSAERQGHTLCSRYLVVVETCMSLASQVVKLTKQLKEQTVERVTLQNQLQQFLEAQKSEGKSLPSSPSSPSSPASRKSQWKSPDADDDSVAKSKPGVQEGIQVLGSLSASSRARPKAKDEDSDKILRQLLGKEISENVCTQEKLSLEFQDAQASSRNSKKIPLEKRELKLARLRQLMQRSLSESDTDSNNSEDPKTTPVRKADRPRPQPIVESVESMDSAESLHLMIKKHTLASGGRRFPFSIKASKSLDGHSPSPTSESSEPDLESQYPGSGSIPPNQPSGDPQQPSPDSTAAQKVATSPKSALKSPSSKRRTSQNLKLRVTFEEPVVQMEQPSLELNGEKDKDKGRTLQRTSTSNESGDQLKRPFGAFRSIMETLSGNQNNNNNYQAANQLKTSTLPLTSLGRKTDAKGNPASSASKGKNKAA
